Assay results reported in article PMC6669929.
Results are given in words; binding and its absence hold for the method and conditions named. Some binding calls cover weakened binding; strength is not graded here.

Assays:
[1] = target: T1, IRE1α, endogenous in MEFs and in mouse spinal cord (mouse (endogenous in MEFs and spinal cord)), Q9EQY0; test: sucrose density-gradient centrifugation; spinal cord of WT or MITOL^nestin mice treated with 1 mg/kg tunicamycin for 24 h, solubilized with NP-40 lysis buffer, sucrose gradient, immunoblot (Fig 7B); details: remark: other sources report otherwise
[2] = target: T1, IRE1α, endogenous in MEFs and in mouse …; test: sucrose density-gradient centrifugation; untransfected control and MITOL-KO MEFs treated with tunicamycin 4 h, NP-40 lysate, 20–40% sucrose gradient, 250,000 g 12 h 4°C, fractions immunoblotted with anti-IRE1α (Fig 3B); details: remark: other sources report otherwise

B1: IRE1α, endogenous in MEFs and in mouse spinal cord, Q9EQY0 21-977 (protein)
chain: SFGRTSTVTLPETLLFVSTLDGSLHAVSKRTGSIKWTLKEDPVLQVPTHVEEPAFLPDPNDGSLYTLGGKNNEGLTKLPFTIPELVQASPCRSSDGILYMGKKQDIWYVIDLLTGEKQQTLSSAFADSLCPSTSLLYLGRTEYTITMYDTKTRELRWNATYFDYAASLPEDDVDYKMSHFVSNGDGLVVTVDSESGDVLWIQNYASPVVAFYVWQGEVLRKVVHINVAVETLRYLTFMSGEVGRITKWKYPFPKETEAKSKLTPTLYVGKYSTSLYASPSMVHEGVAVVPRGSTLPLLEGPQTDGVTIGDKGECVITPSTDLKFDPGLKGKSKLNYLRNYWLLIGHHETPLSASTKMLERFPNNLPKHRENVIPADSEKRSFEEVINIVGQTSDNTPTTVSQDVEEKLARAPAKPEAPVDSMLKDMATIILSTFLLVGWVAFIITYPLSVHQQRQLQHQQFQKELEKIQLLQQQQLPFHPHGDLTQDPEFLDSSGPFSESSGTSSPSPSPRASNHSLHPSSSASRAGTSPSLEQDDEDEETRMVIVGKISFCPKDVLGHGAEGTIVYKGMFDNRDVAVKRILPECFSFADREVQLLRESDEHPNVIRYFCTEKDRQFQYIAIELCAATLQEYVEQKDFAHLGLEPITLLHQTTSGLAHLHSLNIVHRDLKPHNILLSMPNAHGRIKAMISDFGLCKKLAVGRHSFSRRSGVPGTEGWIAPEMLSEDCKDNPTYTVDIFSAGCVFYYVISEGNHPFGKSLQRQANILLGACNLDCFHSDKHEDVIARELIEKMIAMDPQQRPSAKHVLKHPFFWSLEKQLQFFQDVSDRIEKEALDGPIVRQLERGGRAVVKMDWRENITVPLQTDLRKFRTYKGGSVRDLLRAMRNKKHHYRELPVEVQETLGSIPDDFVRYFTSRFPHLLSHTYQAMELCRHERLFQTYYWHEPTEPQPPVIPYAL
binding [1]: binds | binding [2]: binds
